According to PubChem BioAssay AID504467 (National Center for Advancing Translational Sciences (NCATS), 2011):
Out of some 330,000 compounds screened, about 7,700 (2.3%) were called active. Inconclusive means that the source gave no clear call. Such entries were picked first, then a sample of the others. Calls follow the shape of the dose curve; as a rule, active = well fitted inhibition curve with a large enough effect; inconclusive = small, poorly fitted or top-dose-only effect, or effect the other way; inactive = flat fitted curve, though single readings scatter. Potencies of inconclusive entries are doubtful fits and often do not repeat.

Assay: qHTS screen for small molecules that inhibit ELG1-dependent DNA repair in human embryonic kidney (HEK293T) cells expressing luciferase-tagged ELG1; also: nearly all actives have a fitted effect of over 55% in size
Conditions: HEK293T ELG1-luciferase reporter, luminescence, 16 h, DNA damage induced by 5-fluorouridine; series mostly up to 46.1 µM
How it was run: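 Overnight (16 hr) co-exposure of 2,000 cells/well to 5-fluorouridine and compound at 37 °C preceded detection. Luciferase was quantified via ONE-Glo luminescence; loss of signal denotes inhibition.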
Potency is read from the fitted curve at half-maximal effect.

Structure (SMILES)	Potency
CC(=O)c1c(C)[nH]c(C(=O)NNC(=O)COc2cc(C)cc(C)c2)c1C	inactive
COc1ccc(S(=O)(=O)Nc2ccc3c(c2)C(=O)N([C@H](C)CO)C[C@H](C)[C@@H](CN(C)S(=O)(=O)c2cccs2)O3)cc1	inconclusive: 5.17 µM [inhibitor, full curve]
O=C(NN1CCN(Cc2ccccc2)CC1)c1ccc(N2CCOCC2)c([N+](=O)[O-])c1	inconclusive: 18.3 µM [inhibitor, partial curve, poor fit]
Cn1cc(CN2CCCC(CNC(=O)c3ccc4c(c3)OCO4)C2)c2ccccc21 (stereo unspecified)	inconclusive: 29.1 µM [inhibitor, single point]
O=C(N/N=C/c1cc([N+](=O)[O-])ccc1O)c1cccc2ccccc12	inconclusive: 6.51 µM [inhibitor, single point]
CCOC(=O)C1CN(S(=O)(=O)c2ccc(C)cc2)CCN1S(=O)(=O)c1ccc(C)cc1 (stereo unspecified)	inactive
CCCSc1nsc(NC(=O)CC)n1	inconclusive: 1.46 µM [activator, full curve]
CC1CCC(NC(=O)c2cnccn2)CC1 (stereo unspecified)	inactive
Cc1nc(N2CCN(c3ccccn3)CC2)c2c(C)c(C(=O)Nc3ccc(F)cc3)sc2n1	inconclusive: 29.1 µM [inhibitor, single point]
CC(CCc1ccccc1)NC(=O)CN1CCN(c2ccc(O)cc2)CC1 (stereo unspecified)	inconclusive: 11.6 µM [inhibitor, partial curve]
O=S(=O)(c1cccc(F)c1)N1CCN(c2ncnc3scc(-c4ccc(F)cc4)c23)CC1	inconclusive: 20.6 µM [inhibitor, partial curve]
COc1ccc(S(=O)(=O)N(C)C[C@H]2Oc3c(NC(=O)Nc4c(C)noc4C)cccc3C(=O)N([C@H](C)CO)C[C@@H]2C)cc1	inconclusive: 6.51 µM [inhibitor, partial curve]
O=C1CC[C@@H](OCc2ccccc2)CCN1CC[C@H](Sc1ccccc1)c1ccccc1	inconclusive: 0.146 µM [inhibitor, single point]
CCOC(=O)c1cccc(NC(=O)c2cc3ccccc3o2)c1	inconclusive: 1.3 µM [activator, partial curve]
CN(C)CCCNc1nc2sc3c(c2c(=O)n1CCc1ccccc1)CCCCC3	inactive
Cc1c(N=C/C=C/c2ccccc2)c(=O)n(-c2ccccc2)n1C	inactive
N#C/C(=N\Nc1ccc(Cl)cc1)C(N)=S	active: 9.2 µM
COc1ccc(C2NCCc3c2[nH]c2ccccc32)cc1COc1ccc(F)cc1 (stereo unspecified)	inconclusive: 32.6 µM [inhibitor, single point]
O=[N+]([O-])c1cccc(S(=O)(=O)c2ccc(N3CCCCC3)c([N+](=O)[O-])c2)c1	inconclusive: 2.06 µM [inhibitor, partial curve, poor fit]
COc1ccc(Cl)cc1NC(=O)C[n+]1cccc(C)c1	inconclusive: 1.3 µM [inhibitor, partial curve, poor fit]
CC(=O)c1c(C)[nH]c(C(=O)OCc2ccc(F)cc2Cl)c1C	active: 9.2 µM

3 structures already listed, sorted by length of the SMILES, largest number first:
Structure (SMILES)	Potency
O=C1CC[C@@H](OCc2ccccc2)CCN1CC[C@H](Sc1ccccc1)c1ccccc1	inconclusive: 0.146 µM [inhibitor, single point]
O=C(N/N=C/c1cc([N+](=O)[O-])ccc1O)c1cccc2ccccc12	inconclusive: 6.51 µM [inhibitor, single point]
COc1ccc(C2NCCc3c2[nH]c2ccccc32)cc1COc1ccc(F)cc1 (stereo unspecified)	inconclusive: 32.6 µM [inhibitor, single point]

Next records.

Structure (SMILES)	Potency
CN(C(=O)CSc1ncc(C(F)(F)F)cc1Cl)c1c(N)n(Cc2ccccc2)c(=O)[nH]c1=O	inconclusive: 20.6 µM [inhibitor, single point]
Cc1ccc(NC(=O)COC(=O)CSC(=S)N2CCOCC2)cc1	inconclusive: 23.1 µM [activator, single point]
C=CCNc1nc(Cl)nc(Nc2ccccc2)n1	inconclusive: 3.26 µM [activator, partial curve, poor fit]
CCC1S/C(=N/N=C/c2cccs2)NC1=O (stereo unspecified)	inconclusive: 29.1 µM [activator, partial curve, poor fit]
COc1ccc(COC(=O)c2cc([N+](=O)[O-])ccc2N2CCOCC2)cc1F	inconclusive: 2.59 µM [activator, partial curve, poor fit]
Cc1csc(NC(=O)Cc2c(F)cccc2Cl)n1	inconclusive: 25.1 µM [activator, single point]
Cc1ccc(Oc2cnc3ccccc3n2)cc1	inactive
CNC(=O)c1cc(C(=O)c2ccc(Cl)cc2)c[nH]1	inconclusive: 18.3 µM [activator, single point]
COc1ccc2nc(N=Nc3ccc(N(C)C)cc3)sc2c1	inconclusive: 0.461 µM [activator, full curve, poor fit]
COc1ccccc1N1CCN(S(=O)(=O)CCNC(=O)c2ccccc2Br)CC1	inconclusive: 23.1 µM [inhibitor, single point]
O=C(N/N=C/c1ccccc1OC(=O)c1ccc2c(c1)OCO2)c1ccccc1	inconclusive: 16.4 µM [activator, single point]
CCCCNC(=O)CN(Cc1ccco1)S(=O)(=O)c1ccc(C(C)=O)cc1	inconclusive: 16.4 µM [activator, partial curve]
OCCN(CC#CCC(O)(c1ccccc1)C1CCCC1)CCO (stereo unspecified)	inconclusive: 32.6 µM [activator, single point]
COc1ccc(OC)c2[nH]c(=O)c(CCNS(=O)(=O)c3ccccc3)cc12	inactive
Cc1cc(C(=O)Nc2ccc(OCc3ccccc3)cc2)c(C)o1	inconclusive: 18.3 µM [activator, partial curve]
O=C(C1=C[C@H](c2ccc(C(F)(F)F)cc2)C[C@H](OCc2ccc(CO)cc2)O1)N1CCN(Cc2ccc3c(c2)OCO3)CC1	inconclusive: 5.8 µM [inhibitor, full curve]
COc1ccc(NC(=O)CN(c2ccccc2C)S(C)(=O)=O)c(OC)c1	inactive
O=C(O)c1ccc(Cn2cnc3scc(-c4ccccc4)c3c2=O)cc1	inconclusive: 23.1 µM [activator, partial curve, poor fit]
COc1ccc(C(=O)Nc2cccc(C(=O)N/N=C/c3ccc(OC)cc3OC)c2)cc1	inconclusive: 7.3 µM [activator, partial curve]
CCCCCN(C(=O)CCC(=O)OCC(=O)N(C)c1ccccc1)c1c(N)n(CCCC)c(=O)[nH]c1=O	inactive
